Test results from PubChem BioAssay AID528 (NMMLSC, 2006).
Hit rate of the full screen: of about 24,000 compounds, fewer than 10 were called active. This list was built around the results that the source calls inconclusive (neither active nor inactive); the mix of calls is not that of the screen.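 How the source made its calls: active means fluorescent ligand binding to cells raised by more than 40% of the manganese-induced maximum; inconclusive means compound's own fluorescence above 85% of the ligand control signal; inactive means the rest.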

By UniProt entry, the sequences of proteins in these tests, tags left out.
UniProt P13612, whole entry, looked up: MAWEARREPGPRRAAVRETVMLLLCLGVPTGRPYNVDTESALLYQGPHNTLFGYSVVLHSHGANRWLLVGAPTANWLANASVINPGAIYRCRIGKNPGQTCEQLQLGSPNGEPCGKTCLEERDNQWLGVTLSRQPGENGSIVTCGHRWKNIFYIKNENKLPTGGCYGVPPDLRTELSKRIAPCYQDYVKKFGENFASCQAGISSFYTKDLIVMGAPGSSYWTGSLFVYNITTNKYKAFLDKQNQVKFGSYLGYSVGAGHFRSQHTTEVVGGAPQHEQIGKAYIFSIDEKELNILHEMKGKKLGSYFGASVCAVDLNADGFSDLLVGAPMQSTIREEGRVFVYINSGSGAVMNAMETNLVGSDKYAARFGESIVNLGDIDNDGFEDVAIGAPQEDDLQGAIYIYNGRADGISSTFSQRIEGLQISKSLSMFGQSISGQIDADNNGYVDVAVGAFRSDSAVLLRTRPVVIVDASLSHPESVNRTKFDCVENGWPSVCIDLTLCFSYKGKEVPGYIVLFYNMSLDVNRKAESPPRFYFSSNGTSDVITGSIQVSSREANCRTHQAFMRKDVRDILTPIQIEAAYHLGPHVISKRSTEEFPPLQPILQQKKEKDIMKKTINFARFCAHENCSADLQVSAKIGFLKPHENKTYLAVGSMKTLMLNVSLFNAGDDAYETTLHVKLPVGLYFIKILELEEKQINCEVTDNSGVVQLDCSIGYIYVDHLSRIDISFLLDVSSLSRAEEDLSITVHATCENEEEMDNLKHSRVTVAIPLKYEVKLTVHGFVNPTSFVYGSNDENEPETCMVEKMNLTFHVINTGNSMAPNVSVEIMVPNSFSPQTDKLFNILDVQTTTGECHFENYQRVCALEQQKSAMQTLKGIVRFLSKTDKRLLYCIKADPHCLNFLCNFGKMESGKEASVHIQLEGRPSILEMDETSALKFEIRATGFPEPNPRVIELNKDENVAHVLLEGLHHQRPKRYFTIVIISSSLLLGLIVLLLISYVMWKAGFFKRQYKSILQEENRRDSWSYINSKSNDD

The molecules below were run against Integrin alpha-4 (Homo sapiens) (UniProt P13612) (assay: enhancers of LDV-FITC binding to VLA-4 integrin, primary screen, Jurkat cells, flow cytometry (AID 528;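 on activation: 0% = ligand binding without compound and 100% = manganese-stimulated maximal binding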)). Details: stronger effect = higher value, screened at 10 µM (by protocol).
With `O=C(NCCN1CCOCC1)C1CC(=O)N(c2ccc(F)c(Cl)c2)C1` (stereo not drawn) the activation was inactive: 4%. With `OCCCc1nc2n(n1)C(c1ccccc1)C=C(c1ccc(F)cc1)N2` (stereo not drawn) the activation was “inconclusive”. `O=C(c1ccc2c(=O)n(CC3CCCO3)c(=S)[nH]c2c1)N1CCN(c2ccccc2)CC1` (stereo not drawn) was tested, and the activation was “inconclusive”. In the case of `CCc1ccc(-c2nc(CN3CCC(C(=O)NCc4ccco4)CC3)c(C)o2)cc1`, the activation is reported as “inconclusive”. In the case of `COc1ccc(C)cc1NC(=O)CSc1nnc(-c2ccc(C)cc2)o1`, the activation is reported as “inconclusive”. For `CC(C)c1cc(C(=O)Nc2cccc(Cl)c2)no1`, the activation was inactive: 0%. `O=C(Cn1cccc1C(=O)c1ccccc1)NCc1ccccn1` was tested, and the activation was inactive: 1%. In the case of `O=c1nc2c(-c3ccccc3F)n[nH]n2c2ccccc12`, the activation is reported as “inconclusive”. In the case of `Cc1nc2c(-c3ccc(F)cc3)c(C)nn2c(C)c1CCC(=O)N1CCN(c2ccccn2)CC1`, the activation is reported as “inconclusive”. `CCCn1nc(NC(=O)c2cccs2)c2cc3cc(OC)ccc3nc21` was tested, and the activation was “inconclusive”. In the case of `Cc1ccc(NC(=O)C2(N(C(=O)Cn3nnnc3N)c3ccc(C)cc3)CCCCC2)cc1`, the activation is reported as “inconclusive”. `CC(C)CN(CC(C)C)C(=O)C12CCC(C)(C(=O)C1)C2(C)C` (stereo not drawn) was tested, and the activation was inactive: 6%. `CCOC(=O)N1CCc2c(sc3c2C(=O)NC(c2ccccc2)N3)C1` (stereo not drawn) was tested, and the activation was “inconclusive”. `Cc1ccc2c(c1)-c1c(cnn1CC(=O)N1CCCN(Cc3ccccc3F)C1)CO2` was tested, and the activation was “inconclusive”. `COc1cccc(OC)c1/C(O)=C(\C#N)c1nc2ccccc2[nH]1` was tested, and the activation was inactive: 0%. With `COCc1cc(C)nc(N2CCOCC2)c1C#N` the activation was “inconclusive”. For `CC(C(=O)N1CCCc2c1c(=O)oc1ccc(O)cc21)N1CCc2ccccc2C1` (stereo not drawn), the activation was “inconclusive”. With `O=C(c1cccn2c(=O)c3ccc(Cl)cc3nc12)N1CCN(Cc2ccc3c(c2)OCO3)CC1` the activation was inactive: 2%. In the case of `CC1CCN(C(=O)C2CCN(C(=O)c3cc4sccc4n3Cc3ccc(F)cc3)CC2)CC1`, the activation is reported as “inconclusive”. With `O=C1CCCN1CCCNc1ncnc2c1[nH]c1ccc(Cl)cc12` the activation was “inconclusive”. For `CCCCOc1ccc(CSc2n[nH]c(C)n2)cc1`, the activation was “inconclusive”. For `Cc1cc(OCC(=O)Nc2cc(-c3nn4c(C)nnc4s3)ccc2C)ccc1Cl`, the activation was “inconclusive”. In the case of `COc1cccc2sc(Nc3nc(C)c(C(C)=O)s3)nc12`, the activation is reported as “inconclusive”. In the case of `COC(=O)C(C)Sc1ccc2nnc(-c3ccc(F)cc3)n2n1` (stereo not drawn), the activation is reported as “inconclusive”. With `Cn1nc(-c2ccc(Cl)cc2)c2cc(C(=O)N3CCOCC3)sc21` the activation was “inconclusive”. `COc1ccc(-c2cc(C(F)(F)F)nc(NC3CCCC3)n2)cc1OC` was tested, and the activation was inactive: 1%. `C[C@@H]1CCC[C@H](C)N1NC(=O)c1ccc(Cl)c(S(N)(=O)=O)c1` was tested, and the activation was inactive: 3%. With `O=C(NCc1ccco1)c1c[nH]c2ccc(S(=O)(=O)N3CCOCC3)cc2c1=O` the activation was “inconclusive”. `Cn1c(Cn2c(=O)sc3ccccc32)nnc1SCC(=O)N1CCc2ccccc21` was tested, and the activation was “inconclusive”. In the case of `Cc1cc(NC(=O)c2cc3ccccc3o2)cc(C)c1OCC(=O)N1CCOCC1`, the activation is reported as “inconclusive”. `Cc1ccc(-c2noc(CCC(=O)N(C)c3ccccc3C)n2)cc1` was tested, and the activation was “inconclusive”. In the case of `O=C(Nc1ccc2c(c1)OCO2)C(c1ccccc1)N1CCCCC1` (stereo not drawn), the activation is reported as inactive: -3%. For `COC(=O)c1ccc(C(=O)OC)c(NC(=O)c2oc(C)nc2C)c1`, the activation was inactive: -1%. For `O=C(NCCN1CCOCC1)c1ccc2c(c1)ncn2C1CCCCC1`, the activation was inactive: 2%. In the case of `O=C(Nc1ccc2c(c1)OCO2)c1cnc2n(c1=O)CCS2`, the activation is reported as “inconclusive”. For `CCOC(=O)Cn1c(=N)n(Cc2ccccc2)c2ccccc21`, the activation was “inconclusive”. `COc1cccc(CNC(=O)CCNS(=O)(=O)c2cccs2)c1` was tested, and the activation was “inconclusive”. `Cc1ccc(CC(=O)N2CCC(c3nc4c(nnn4Cc4ccccc4)c(=O)[nH]3)CC2)cc1` was tested, and the activation was “inconclusive”. For `CCOC(=O)c1cccc(-n2c(C)nc3ccccc3c2=O)c1`, the activation was “inconclusive”. With `O=C(CCCNS(=O)(=O)c1cccs1)N1CCN(c2cccc(Cl)c2)CC1` the activation was “inconclusive”. For `Cn1c(=O)oc2cc(S(=O)(=O)NCCC(=O)NCCc3ccc(Cl)cc3)ccc21`, the activation was “inconclusive”. In the case of `COc1ccc(OC)c2[nH]c(=O)c(CCNS(=O)(=O)c3ccc(Cl)cc3)cc12`, the activation is reported as “inconclusive”. For `Cn1c(C(=O)N2CCCC(C(=O)NCc3ccc4c(c3)OCO4)C2)cc2sccc21` (stereo not drawn), the activation was “inconclusive”. In the case of `O=C(O)CSCc1cnn(-c2ccccc2)c1-n1cccc1`, the activation is reported as “inconclusive”. With `Cc1ccc2nc3ccc(N4CCN(C)CC4)nn3c(=O)c2c1` the activation was “inconclusive”. For `Cc1ccc(Cl)cc1N1CCN(C(=O)CCS(=O)(=O)c2cccc3nonc23)CC1`, the activation was “inconclusive”. In the case of `CCOC(=O)N1CCC(N2C(=O)c3ccccc3C2Nc2cc(C(=O)OC)cc(C(=O)OC)c2)CC1` (stereo not drawn), the activation is reported as inactive: -6%. `N=c1c(S(=O)(=O)c2ccc(Cl)cc2)cc2c(=O)n3ccccc3nc2n1CCN1CCOCC1` was tested, and the activation was “inconclusive”. For `COc1cccc2cc(-c3nc(-c4cccs4)cs3)c(=O)oc12`, the activation was “inconclusive”. In the case of `COc1ccc(N2CCN(C(c3cccs3)c3nnnn3C3CCCC3)CC2)cc1` (stereo not drawn), the activation is reported as “inconclusive”. With `CC(C)OCCCNS(=O)(=O)c1ccc2c(c1)oc(=O)n2C` the activation was “inconclusive”. In the case of `COc1cccc(OC)c1C(=O)N1CCN=C1SCc1cccnc1`, the activation is reported as “inconclusive”. With `CCN1CCN(CCNC(=O)CS(=O)(=O)Cc2nc(-c3ccc(C)cc3)oc2C)CC1` the activation was “inconclusive”. `N#C/C=C\Oc1ccc(Cl)cc1N` was tested, and the activation was “inconclusive”. For `COc1cccc(N2CCN(c3ncnc4c3[nH]c3ccc(F)cc34)CC2C)c1` (stereo not drawn), the activation was inactive: -36.3%. With `Cc1cc(C)n(CCc2nc3c4ccccc4n(CC(=O)Nc4ccc(Cl)cc4F)c(=O)n3n2)n1` the activation was inactive: -6%. `CCOc1ccc(Cc2nn[nH]n2)cc1` was tested, and the activation was “inconclusive”. `O=C1CN(C(=O)c2ccc(Br)o2)C(c2ccc(F)cc2)c2cc(Cl)ccc2N1` (stereo not drawn) was tested, and the activation was “inconclusive”. For `COC(=O)c1[nH]c(C)c(/C(O)=C2\C(=O)C(=O)N(CCCN3CCOCC3)C2c2ccccn2)c1C` (stereo not drawn), the activation was inactive: 13.5%. In the case of `Cc1nc(NC2=NCN(CC3CCCO3)CN2)nc2ccccc12` (stereo not drawn), the activation is reported as “inconclusive”. For `COc1ccccc1N1CC(O)=C(c2nc3ccccc3c(=O)[nH]2)C1=N`, the activation was “inconclusive”. In the case of `N=c1n(CCO)c2ccccc2n1CCOc1ccc(Cl)cc1Cl`, the activation is reported as inactive: -5%. `Cc1noc(C)c1S(=O)(=O)N(CC(=O)NCc1ccc(Cl)cc1)c1ccc2c(c1)OCO2` was tested, and the activation was inactive: 3%. In the case of `Cc1nn(C)c(C)c1S(=O)(=O)Nc1ccc2c(c1)OCO2`, the activation is reported as “inconclusive”. For `CC(=O)c1ccc(N2CCN(C(=O)c3ccc4c(=O)n(-c5ccccc5)c(=O)[nH]c4c3)CC2)cc1`, the activation was “inconclusive”. In the case of `COc1ccc(CCNC(=O)Cn2c(-c3nonc3N)nc3ccccc32)cc1OC`, the activation is reported as “inconclusive”. In the case of `CCCCCn1c(SCC#N)nc2cc(C(=O)NC3CCCCC3)ccc2c1=O`, the activation is reported as “inconclusive”. In the case of `COC(=O)C1=C(NC(=O)c2ccc(C)c(C)c2)CCS1`, the activation is reported as inactive: -4%. With `COCCN1CSC(=S)N(Cc2ccco2)C1` the activation was “inconclusive”. For `CCOC(=O)c1ccc(NC(=O)CS(=O)(=O)c2cn(CC)c3ccccc23)cc1`, the activation was “inconclusive”. With `Cc1cccc(N=c2oc3cc(O)ccc3cc2C(N)=O)c1` the activation was “inconclusive”. For `CCc1c(-c2ccccc2)nc2nc(C)c(C)nn12`, the activation was “inconclusive”. With `COCCNC(=O)c1cn(C)c2ccc(S(=O)(=O)N(C)C3CCCCC3)cc2c1=O` the activation was “inconclusive”. In the case of `COc1cccc(N2C(=O)CC(N3CCN(S(=O)(=O)c4ccccc4)CC3)C2=O)c1` (stereo not drawn), the activation is reported as inactive: -2%. In the case of `COc1ccc(Br)cc1C1CC(=O)N2CN(Cc3ccccc3)CSC2=C1C#N` (stereo not drawn), the activation is reported as “inconclusive”. In the case of `COc1ccccc1N1CCN(c2nc3ccccc3nc2C(C#N)C(=O)OC(C)C)CC1` (stereo not drawn), the activation is reported as inactive: -5%. In the case of `Cc1cccc(C2CC(c3ccccc3)Nc3nc(N)nn32)c1` (stereo not drawn), the activation is reported as “inconclusive”. In the case of `C#CCSc1nnc(-c2ccccc2)c(=O)[nH]1`, the activation is reported as “inconclusive”. For `Cc1nc2c(ccc3nc(NC(=O)c4ccc5c(c4)OCCO5)sc32)s1`, the activation was “inconclusive”. `CCN1C(=O)c2cccc3c(S(=O)(=O)NCCCN4CCOCC4)ccc1c23` was tested, and the activation was “inconclusive”. For `CCOc1ccccc1NC(=O)C1CCN(S(=O)(=O)c2c(C)nn(C)c2C)CC1`, the activation was inactive: 2%. In the case of `O=C(Nc1cccc(NC(=O)c2ccc(Br)o2)n1)c1ccc(Br)o1`, the activation is reported as “inconclusive”. For `O=C(O)CCC(=O)CCC(=O)c1ccccc1`, the activation was “inconclusive”. In the case of `CCC(=O)N(c1ccc(F)cc1)C1C=CS(=O)(=O)C1` (stereo not drawn), the activation is reported as “inconclusive”. In the case of `CC(=O)Nc1ccc(Cl)cc1C(=O)O`, the activation is reported as inactive: -1.3%. With `O=C1C2CC=C(Cl)CC2C(=O)N1CC1Cc2ccccc2CO1` (stereo not drawn) the activation was “inconclusive”. `O=C(N1CCOCC1)N1CCC(NC(=O)C23CC4CC(CC(C4)C2)C3)CC1` was tested, and the activation was inactive: 4.5%. With `Cc1cnc(C(=O)Nc2ccccc2-n2cccc2)cn1` the activation was “inconclusive”. For `COc1ccccc1OC(=O)c1ccc(SC)cc1OC`, the activation was inactive: -2%. For `O=C1C(C23CC4CC(CC(C4)C2)C3)C(=O)N(c2ccccc2)N1c1ccccc1`, the activation was inactive: -6%. `COc1cc(-c2nnc(SCc3c(F)cccc3Cl)o2)cc(OC)c1OC` was tested, and the activation was “inconclusive”. In the case of `CCN1CCN(C(=O)c2cc3cc4cc(OC)ccc4nc3s2)CC1`, the activation is reported as “inconclusive”. For `CCCOc1ccc(C2c3c(oc4cc(C)c(C)cc4c3=O)C(=O)N2CCCN(C)C)cc1OCC` (stereo not drawn), the activation was “inconclusive”. With `Cc1ccc(CNC(=O)CN2C(=O)COc3ccc(C)cc32)cc1` the activation was inactive: 4%. For `CC1CC(C)CN(C(=O)C2CCCN(S(=O)(=O)c3cccc4nonc34)C2)C1` (stereo not drawn), the activation was “inconclusive”. In the case of `O=C(Nn1cnc2ccccc2c1=O)c1ccccc1Cl`, the activation is reported as “inconclusive”. In the case of `COc1ccc(-c2c(C)oc3cc(O)cc(O)c3c2=O)cc1OC`, the activation is reported as “inconclusive”. `COc1cc(NC(=O)c2nnn(Cc3ccc(SC)cc3)c2N)cc(OC)c1` was tested, and the activation was inactive: -1%.
